Results: US20230117286A1, “PHARMACEUTICAL COMPOSITION FOR PREVENTION OR TREATMENT OF NONALCOHOLIC STEATOHEPATITIS” (DONG-A ST CO., LTD., priority 2020, published 2023)
At least one structure is not confirmed: it was looked up by name or label, or the drawing left a doubt.

System: Primary human hepatic stellate cells
Experiment: Pro-collagen 1a1 expression in TGFβ1-activated primary human hepatic stellate cells
Type: cell-based
Conditions: FIG. 13; TGFβ1 5 ng/ml, 18 hours; each drug treated alone
Description: Primary human hepatic stellate cells (ScienCell, #5300) were stabilized for 24 hours, then cultured in a serum-free medium for 24 hours, and then treated with compound 1 in combination with elafibranor as a PPAR agonist, firsocostat as an ACC inhibitor, or obeticholic acid as a FXR agonist together with 5 ng/ml of recombinant […] (TGFβ1), after which the resulting cells were harvested in 18 hours later and an amount of pro-collagen 1a1 in total cell proteins was quantified with a commercialized ELISKA Kit (R&D Systems, DY6220), while an amount of total cell proteins was quantified and corrected by a BCA method, and the results of calculating a concentration response curve of each drug and a concentration (IC30) showing 30% inhibitory activity are shown in FIG. 13.
When compound 1 was treated in combination with the PPAR agonist or the ACC inhibitor, the CI was calculated to be 0.7 and 0.6, which was smaller than 1, thus confirming a synergistic effect. And the CI was calculated to be 1 when treated in combination with the FXR agonist, thus confirming an additive effect.

Question: With CC[C@H]1[C@@H](O)[C@@H]2[C@H](CC[C@]3(C)[C@@H]([C@H](C)CCC(=O)O)CC[C@@H]23)[C@@]2(C)CC[C@@H](O)C[C@@H]12 [obeticholic acid] as the compound, how does the “protein expression of pro-collagen 1a1 induced by TGFβ1” value read?
Answer: relatively low response
